Measured values reported in article PMC8959458.
Results are given in words; binding and its absence hold for the method and conditions named. In cells and extracts the contact can be indirect. Some entries that bind do so weakly or less than the wild type.

Target: PKCα (mouse (endogenous in skeletal muscle)) (UniProt P20444)
Assay: co-IP; PKC antibody (10 μg) immobilised on resin, 1 mg skeletal muscle lysate; Nox2/Nox4 detected in the precipitate by western blot; mice inactive, exercised at 25°C or -5°C for 6 weeks, with or without VC or LCBP

| Binder | binding |
| --- | --- |
| Nox4 (enzyme, UniProt Q9JHI8 1-578) MAVSWRSWLANEGVKHLCLLIWLSLNVLLFWKTFLLYNQGPEYYYIHQMLGLGLCLSRASASVLNLNCSLILLPMCRTVLAYLRGSQKVPSRRTRRLLDKSKTLHITCGVTICIFSGVHVAAHLVNALNFSVNYSEDFLELNAARYQNEDPRKLLFTTIPGLTGVCMVVVLFLMVTASTYAIRVSNYDIFWYTHNLFFVFYMLLLLHVSGGLLKYQTNVDTHPPGCISLNQTSSQNMSIPDYVSEHFHGSLPRGFSKLEDRYQKTLVKICLEEPKFQAHFPQTWIWISGPLCLYCAERLYRCIRSNKPVTIISVINHPSDVMELRMIKENFKARPGQYIILHCPSVSALENHPFTLTMCPTETKATFGVHFKVVGDWTERFRDLLLPPSSQDSEILPFIHSRNYPKLYIDGPFGSPFEESLNYEVSLCVAGGIGVTPFASILNTLLDDWKPYKLRRLYFIWVCRDIQSFQWFADLLCVLHNKFWQENRPDFVNIQLYLSQTDGIQKIIGEKYHTLNSRLFIGRPRWKLLFDEIAKCNRGKTVGVFCCGPSSISKTLHSLSNRNNSYGTKFEYNKESFS | binds |
| Nox2 (enzyme, UniProt Q61093 1-570) MGNWAVNEGLSIFVILVWLGLNVFLFINYYKVYDDGPKYNYTRKLLGSALALARAPAACLNFNCMLILLPVCRNLLSFLRGSSACCSTRIRRQLDRNLTFHKMVAWMIALHTAIHTIAHLFNVEWCVNARVGISDRYSIALSDIGDNENEEYLNFAREKIKNPEGGLYVAVTRLAGITGIVITLCLILIITSSTKTIRRSYFEVFWYTHHLFVIFFIGLAIHGAERIVRGQTAESLEEHNLDICADKIEEWGKIKECPVPKFAGNPPMTWKWIVGPMFLYLCERLVRFWRSQQKVVITKVVTHPFKTIELQMKKKGFKMEVGQYIFVKCPKVSKLEWHPFTLTSAPEEDFFSIHIRIVGDWTEGLFNACGCDKQEFQDAWKLPKIAVDGPFGTASEDVFSYEVVMLVGAGIGVTPFASILKSVWYKYCDNATSLKLKKIYFYWLCRDTHAFEWFADLLQLLETQMQERNNANFLSYNIYLTGWDESQANHFAVHHDEEKDVITGLKQKTLYGRPNWDNEFKTIASEHPNTTIGVFLCGPEALAETLSKQSISNSESGPRGVHFIFNKENF | binds |
